From PMC8225388
No constants are given. Whether binding was seen depends on the method and setting. Binding seen in cells or lysates may run through a third protein. Some entries that bind do so weakly or less than the wild type.

Amino acid sequences for entries named in this document (tags omitted). Residues count along the entry.
UniProt Q12906, residues 5-378: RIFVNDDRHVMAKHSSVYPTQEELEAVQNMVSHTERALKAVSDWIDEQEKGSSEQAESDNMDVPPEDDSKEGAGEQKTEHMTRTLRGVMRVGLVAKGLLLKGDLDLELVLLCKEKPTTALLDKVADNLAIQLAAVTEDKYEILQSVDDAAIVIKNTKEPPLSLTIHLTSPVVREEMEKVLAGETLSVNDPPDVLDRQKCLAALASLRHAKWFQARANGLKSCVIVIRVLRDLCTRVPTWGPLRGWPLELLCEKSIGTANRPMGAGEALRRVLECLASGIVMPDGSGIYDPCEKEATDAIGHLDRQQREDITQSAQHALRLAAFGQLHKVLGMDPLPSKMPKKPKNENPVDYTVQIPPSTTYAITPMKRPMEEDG
UniProt Q8TDQ0, residues 22-301: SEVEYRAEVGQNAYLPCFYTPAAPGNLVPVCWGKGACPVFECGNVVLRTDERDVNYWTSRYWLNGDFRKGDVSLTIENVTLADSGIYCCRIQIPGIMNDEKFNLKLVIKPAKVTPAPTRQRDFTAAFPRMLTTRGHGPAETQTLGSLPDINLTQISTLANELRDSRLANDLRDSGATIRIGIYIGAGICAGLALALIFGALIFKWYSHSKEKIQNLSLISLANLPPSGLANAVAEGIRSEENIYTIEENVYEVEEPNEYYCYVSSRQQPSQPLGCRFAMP
UniProt Q96LD4: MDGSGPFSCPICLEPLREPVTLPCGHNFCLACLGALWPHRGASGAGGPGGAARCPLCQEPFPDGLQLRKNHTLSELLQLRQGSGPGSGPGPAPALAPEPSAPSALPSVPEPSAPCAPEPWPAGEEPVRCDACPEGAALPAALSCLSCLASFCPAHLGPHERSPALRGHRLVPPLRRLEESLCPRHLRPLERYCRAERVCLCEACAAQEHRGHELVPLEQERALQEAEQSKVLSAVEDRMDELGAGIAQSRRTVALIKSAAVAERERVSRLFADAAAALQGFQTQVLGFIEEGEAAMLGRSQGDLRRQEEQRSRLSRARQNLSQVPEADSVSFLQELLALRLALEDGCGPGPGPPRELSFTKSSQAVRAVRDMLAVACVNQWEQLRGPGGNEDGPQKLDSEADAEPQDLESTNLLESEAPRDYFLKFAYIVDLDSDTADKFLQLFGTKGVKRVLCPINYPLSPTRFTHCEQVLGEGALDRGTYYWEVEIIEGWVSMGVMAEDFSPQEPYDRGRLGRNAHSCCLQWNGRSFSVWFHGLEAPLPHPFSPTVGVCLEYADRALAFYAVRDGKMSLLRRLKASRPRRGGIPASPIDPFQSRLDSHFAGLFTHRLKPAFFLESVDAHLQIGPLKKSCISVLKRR

What was measured:
[1] = target: Flag-NF90-DZF (UniProt Q12906); experiment: co-IP; HEK293T co-transfected for 24 hr; lysis in 1% NP-40, 20 mM Tris-HCl, 150 mM NaCl, 5 mM EDTA, 0.25% deoxycholate, pH 7.5; Protein A/G beads with tag or Tim-3 antibody overnight at 4°C; washes with 500 mM and 150 mM NaCl buffers; western blot; for Figure 5A,B cells treated with MG132 (20 ug/ml) for 6 hr
[2] = target: Tim-3 (wild-type construct of Figure 5A) (human) (UniProt Q8TDQ0); experiment: as above

Q: What does the source list for “V5-TRIM47 (from UniProt Q96LD4 1-638) (enzyme)”?
A: binding [1]: binds; binding [2]: binds
